Measured values: patent EP4843985A1, “TRIAZOLOPYRIMIDINE DERIVATIVE, PREPARATION METHOD THEREFOR AND USE THEREOF” (dated 2026)
Structures were worked out from names or drawings and are uncertain.

Protein sequences, listed by entry. Tags and fused reporters are not part of them.
UniProt O75469, whole entry: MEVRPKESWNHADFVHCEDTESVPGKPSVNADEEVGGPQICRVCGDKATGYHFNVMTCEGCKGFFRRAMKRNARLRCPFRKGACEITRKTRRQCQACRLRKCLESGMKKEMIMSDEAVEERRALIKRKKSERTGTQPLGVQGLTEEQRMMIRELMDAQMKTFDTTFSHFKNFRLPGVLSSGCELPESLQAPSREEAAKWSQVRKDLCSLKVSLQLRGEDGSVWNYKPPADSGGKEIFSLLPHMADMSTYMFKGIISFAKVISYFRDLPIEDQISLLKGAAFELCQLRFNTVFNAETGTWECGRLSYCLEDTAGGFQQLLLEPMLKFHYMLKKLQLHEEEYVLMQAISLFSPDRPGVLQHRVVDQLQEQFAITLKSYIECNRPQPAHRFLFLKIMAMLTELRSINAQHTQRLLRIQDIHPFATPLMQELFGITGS

Target: PXR (Homo sapiens, UniProt O75469)
Assay: PXR activation in stably transfected DPX2 cells (luciferase reporter)
Settings: at 10 µM
Description: The purpose of this study was to evaluate the potential of the test article to activate PXR in vitro and thereby induce drug-metabolizing enzymes.
DPX2 cells (HepG2 cell line stably transfected with PXR and a luciferase-linked CYP3A4 promoter reporter gene) were purchased from Puracyp Inc (Carlsbad, CA); fetal bovine serum was purchased from Acantor.
• 1) DPX2 cells were cultured using a culture medium containing 10% fetal bovine serum (FBS). • 2) DPX2 cells were cultured in T-75 culture flask in a cell culture incubator at 37°C, 5% CO2, and 95% relative humidity. […] After 24 or 48 hours of cell treatment, quantitative determination of PXR activation was performed. • 8) The CellTiter Fluor™ cell viability assay kit and the One-Glo luciferase assay kit were brought to room temperature. […] 25 µL of the prepared cell viability assay system was gently added to each well, and then the plate was incubated at 37°C in the cell culture incubator for 30 minutes. • 10) The 384-well plate was removed from the cell culture incubator, and the fluorescence value of each well was read using a microplate reader in fluorescence mode with excitation at 400 nm and emission at 505 nm. […] After incubation with vortex shaking at room temperature for 5 minutes, the luminescence value of each well was read using a microplate reader. […]

Q: Which Fold activation does the source give for `[2H]C1([2H])CCC(c2nc3n4c(c(N5CCN(C(=O)c6ncnc(C)c6O)[C@H]6CC[C@@H]65)c(=O)n3n2)[C@H](C)C[C@@H]4C(=O)Nc2scc(C(F)(F)F)c2C)=CCO1` here?
A: 1.44
